The source of these data is article doi:10.1101/2025.10.29.685270.

Protein sequences, listed by entry. Tags and fused reporters are not part of them. Residues count along the entry.
UniProt P51608, 90-181: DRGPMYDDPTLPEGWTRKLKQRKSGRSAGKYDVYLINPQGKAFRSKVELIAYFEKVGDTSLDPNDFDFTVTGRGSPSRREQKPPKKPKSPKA

Construct, isoform or probe ends are uncertain for at least one entry. At least one verdict was read from the data and is not stated in words by the source.

The data set has as its target MECP2 wt MBD (Homo sapiens) (UniProt P51608). Put plainly: EMSA. To be noted: strand 2 C12=5mC; residues 90-181; letters put together from the description. (In general: Mobility shift assays separate free from complexed probe on a gel.)

Take “AAAAAAAAAAATGAAAAAAAAAAA (double strand) [mCpA 24-mer, dA/dT context]”: the binding result is given as “binds”.
